In article PMC10694592:
These are yes or no findings as the source states them, for the method shown. In cells and extracts the contact can be indirect. Some entries that bind do so weakly or less than the wild type.

Amino acid sequences for entries named in this document (tags omitted). A change or cut given only in a name is not applied to a line headed by its entry. Chains listed by the source or under a name are the forms on record and can include a tag or linker.
FLAG-tagged full-length OPTN-IVD-NEMO (Q9Y6K9, form named): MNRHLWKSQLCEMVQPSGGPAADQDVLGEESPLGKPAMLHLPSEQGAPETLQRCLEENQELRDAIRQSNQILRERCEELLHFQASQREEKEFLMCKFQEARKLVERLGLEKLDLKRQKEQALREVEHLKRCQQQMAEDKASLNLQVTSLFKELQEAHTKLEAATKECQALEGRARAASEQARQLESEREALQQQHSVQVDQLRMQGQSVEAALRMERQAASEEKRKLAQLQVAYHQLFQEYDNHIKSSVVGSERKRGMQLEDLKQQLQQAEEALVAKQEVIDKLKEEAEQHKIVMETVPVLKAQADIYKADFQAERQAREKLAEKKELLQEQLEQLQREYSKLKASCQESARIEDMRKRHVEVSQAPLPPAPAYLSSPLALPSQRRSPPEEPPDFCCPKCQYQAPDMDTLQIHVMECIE

Target: FLAG-tagged full-length OPTN-IVD-NEMO (human) (UniProt Q9Y6K9)
Experiment: cross-linking; disulfide-bonded dimers: lysates (non-ionic detergent) of transfected 293T NEMO KO cells in SDS sample buffer without β-mercaptoethanol, not boiled, SDS-PAGE, anti-NEMO Western blot

FLAG-tagged full-length OPTN-IVD-NEMO (from UniProt Q9Y6K9 1-419)
binding: binds
